“And” between values parts separate entries of the source, which are not always exact repeats. Equal values may be shown once. Where a name gives a salt, the structure may show the parent alone. The list shows a part of the results. The data scatter; read single values as rough.

In this assay the test system is Peyronie's disease tunica albuginea primary fibroblasts. The experiment in a line: cell viability (DRAQ5 nuclear stain) relative to TGF-beta1-only control; higher = more viable cells. The note with it: 10 µM; TGF-beta1 10 ng/mL; 72 h.
With `O=S(=O)(O)Oc1ccc(C(c2ccc(OS(=O)(=O)O)cc2)c2ccccn2)cc1` [Sodium Picosulfate], the cell viability (commonly a read-out of living cells in per cent, often relative to untreated cells) was found to be 95.9%.
For the molecule `Cc1cc2c(s1)Nc1ccccc1N=C2N1CCN(C)CC1` [Olanzapine], the cell viability is 88.3%.
In the case of `CCCCN(CCCC)CC(O)c1cc(Cl)cc2c1-c1ccc(Cl)cc1/C2=C/c1ccc(Cl)cc1` (stereo unspecified) [Lumefantrine] it was 94.3%; in that of `Cc1cn(-c2cc(NC(=O)c3ccc(C)c(Nc4nccc(-c5cccnc5)n4)c3)cc(C(F)(F)F)c2)cn1` [Nilotinib hydrochloride], 116%.
In the case of `Cc1cn(-c2cc(NC(=O)c3ccc(C)c(Nc4nccc(-c5cccnc5)n4)c3)cc(C(F)(F)F)c2)cn1` [Nilotinib (AMN-107)] it was 104%.
With `Cc1cc(O)cc(C)c1Cl` [Chloroxylenol], the cell viability came out at 93.1%.
In the case of `Oc1cccc(O)c1` [Resorcinol] it was 102%.
Consider `CS(=O)(=O)c1cccc(C[C@H](NC(=O)c2c(Cl)cc3c(c2Cl)CCN(C(=O)c2ccc4ccoc4c2)C3)C(=O)O)c1` [Lifitegrast], for which the cell viability amounted to 91.6%.
The value for `COC(=O)CCC(=O)CN` [Methyl Aminolevulinate Hydrochloride] was 92%.
The value for `CC(=O)c1c(C)c2cnc(Nc3ccc(N4CCNCC4)cn3)nc2n(C2CCCC2)c1=O` was 58.9% and 34.4%; that for `COc1nccnc1NS(=O)(=O)c1ccc(N)cc1` [Sulfalene(SMPZ)] was 94.2%; that for `C#C[C@]1(O)CC[C@H]2[C@@H]3CCC4=CC(=O)CC[C@@H]4[C@H]3C(=C)C[C@@]21CC` [Etonogestrel] was 96.8%.
For the molecule `NC(=O)c1ccc(I)c([N+](=O)[O-])c1` [Iniparib (BSI-201)], the cell viability worked out at 93.3%.
The value for `CC(C)N(CCCCOCC(=O)NS(C)(=O)=O)c1cnc(-c2ccccc2)c(-c2ccccc2)n1` [Selexipag] was 86.4%.
The value for `O=C(O)c1cc(/N=N/c2ccc(S(=O)(=O)Nc3ccccn3)cc2)ccc1O` [Sulfasalazine] was 96.5%; that for `C/C(=C\C(=O)OCCCCCCCCC(=O)O)C[C@@H]1OC[C@H](C[C@@H]2O[C@H]2[C@@H](C)[C@H](C)O)[C@@H](O)[C@H]1O` [Mupirocin calcium] was 82.9%; that for `C/C(=C\C(=O)OCCCCCCCCC(=O)O)C[C@@H]1OC[C@H](C[C@@H]2O[C@H]2[C@@H](C)[C@H](C)O)[C@@H](O)[C@H]1O` [Mupirocin] was 79%.
In the case of `CN/C(=N\CCSCc1nc[nH]c1C)NC#N` [Cimetidine] it was 86.6%.
Consider `N/N=c1\[nH][nH]/c(=N\N)c2ccccc12` [Dihydralazine sulphate], for which the cell viability turned out to be 73.2%.
As for `O=C(O)c1ccccc1O` [Salicylic acid], the cell viability was found to be 110%.
The value for `O=c1oc2cc(O)ccc2s1` [Tioxolone] was 83.6%.

These data come from the supplement of paper PMC9744312.
